Assay [1] addresses T1, Ftr1-Rluc PCA fragment fusion (bait of the Renilla luciferase PCA) (S. cerevisiae) (UniProt P40088).
T1 sequence: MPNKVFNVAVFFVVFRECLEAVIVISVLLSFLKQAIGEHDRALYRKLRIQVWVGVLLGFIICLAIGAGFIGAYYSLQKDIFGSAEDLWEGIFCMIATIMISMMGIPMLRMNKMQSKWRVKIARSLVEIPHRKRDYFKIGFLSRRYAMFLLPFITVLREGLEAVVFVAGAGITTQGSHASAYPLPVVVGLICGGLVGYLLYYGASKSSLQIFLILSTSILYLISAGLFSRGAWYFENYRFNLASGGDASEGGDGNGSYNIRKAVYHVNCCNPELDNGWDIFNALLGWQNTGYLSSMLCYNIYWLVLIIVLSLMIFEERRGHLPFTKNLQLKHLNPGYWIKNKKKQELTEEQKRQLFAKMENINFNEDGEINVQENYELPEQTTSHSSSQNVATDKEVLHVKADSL
Description: split reporter; Renilla luciferase (Rluc) PCA in diploid S. cerevisiae, luminescence of 1-2 x 10^7 cells in PBS pH 7.2 with 1 mM EDTA and 20 uM benzyl coelenterazine; cells grown with 200 uM copper sulfate.

Protein sequences, listed by entry. Tags and fused reporters are not part of them.
UniProt P33302: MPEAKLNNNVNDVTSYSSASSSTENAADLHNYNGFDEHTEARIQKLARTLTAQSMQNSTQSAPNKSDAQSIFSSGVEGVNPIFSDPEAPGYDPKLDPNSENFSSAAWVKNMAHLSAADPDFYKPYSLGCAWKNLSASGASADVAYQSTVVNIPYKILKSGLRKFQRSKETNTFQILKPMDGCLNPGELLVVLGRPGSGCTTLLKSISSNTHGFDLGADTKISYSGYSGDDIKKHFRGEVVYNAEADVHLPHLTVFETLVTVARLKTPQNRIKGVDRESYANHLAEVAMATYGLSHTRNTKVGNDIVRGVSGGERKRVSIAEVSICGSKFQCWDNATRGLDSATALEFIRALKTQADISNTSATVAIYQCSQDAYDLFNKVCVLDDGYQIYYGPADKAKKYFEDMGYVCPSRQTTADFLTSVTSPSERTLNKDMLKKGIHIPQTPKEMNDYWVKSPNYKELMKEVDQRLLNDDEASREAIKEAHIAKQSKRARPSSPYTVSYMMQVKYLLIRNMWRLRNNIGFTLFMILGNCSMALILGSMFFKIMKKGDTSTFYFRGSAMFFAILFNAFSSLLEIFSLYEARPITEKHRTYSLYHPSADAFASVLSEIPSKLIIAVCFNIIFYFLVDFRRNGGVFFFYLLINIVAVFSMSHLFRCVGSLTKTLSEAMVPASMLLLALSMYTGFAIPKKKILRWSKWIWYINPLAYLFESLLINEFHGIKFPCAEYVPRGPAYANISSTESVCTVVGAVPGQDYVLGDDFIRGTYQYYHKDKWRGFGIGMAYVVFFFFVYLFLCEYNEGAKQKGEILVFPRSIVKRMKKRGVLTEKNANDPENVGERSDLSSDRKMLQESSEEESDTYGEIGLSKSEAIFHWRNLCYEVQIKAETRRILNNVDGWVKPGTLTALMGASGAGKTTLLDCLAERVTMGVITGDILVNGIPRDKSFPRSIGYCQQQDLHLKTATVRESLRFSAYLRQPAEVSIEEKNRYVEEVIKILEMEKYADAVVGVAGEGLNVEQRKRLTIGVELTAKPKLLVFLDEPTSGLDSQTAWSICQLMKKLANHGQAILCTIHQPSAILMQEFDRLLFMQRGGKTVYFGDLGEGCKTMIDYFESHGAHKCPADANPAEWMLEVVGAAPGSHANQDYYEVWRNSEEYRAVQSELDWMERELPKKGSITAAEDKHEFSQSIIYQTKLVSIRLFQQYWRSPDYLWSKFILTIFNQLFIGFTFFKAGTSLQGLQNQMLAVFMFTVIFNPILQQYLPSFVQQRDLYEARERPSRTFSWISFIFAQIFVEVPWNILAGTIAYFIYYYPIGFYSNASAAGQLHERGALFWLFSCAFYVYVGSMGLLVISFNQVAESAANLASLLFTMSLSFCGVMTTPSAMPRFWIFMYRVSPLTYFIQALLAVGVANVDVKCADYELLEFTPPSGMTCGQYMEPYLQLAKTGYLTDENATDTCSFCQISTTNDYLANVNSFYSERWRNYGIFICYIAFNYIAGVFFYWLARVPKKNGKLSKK
UniProt P32568: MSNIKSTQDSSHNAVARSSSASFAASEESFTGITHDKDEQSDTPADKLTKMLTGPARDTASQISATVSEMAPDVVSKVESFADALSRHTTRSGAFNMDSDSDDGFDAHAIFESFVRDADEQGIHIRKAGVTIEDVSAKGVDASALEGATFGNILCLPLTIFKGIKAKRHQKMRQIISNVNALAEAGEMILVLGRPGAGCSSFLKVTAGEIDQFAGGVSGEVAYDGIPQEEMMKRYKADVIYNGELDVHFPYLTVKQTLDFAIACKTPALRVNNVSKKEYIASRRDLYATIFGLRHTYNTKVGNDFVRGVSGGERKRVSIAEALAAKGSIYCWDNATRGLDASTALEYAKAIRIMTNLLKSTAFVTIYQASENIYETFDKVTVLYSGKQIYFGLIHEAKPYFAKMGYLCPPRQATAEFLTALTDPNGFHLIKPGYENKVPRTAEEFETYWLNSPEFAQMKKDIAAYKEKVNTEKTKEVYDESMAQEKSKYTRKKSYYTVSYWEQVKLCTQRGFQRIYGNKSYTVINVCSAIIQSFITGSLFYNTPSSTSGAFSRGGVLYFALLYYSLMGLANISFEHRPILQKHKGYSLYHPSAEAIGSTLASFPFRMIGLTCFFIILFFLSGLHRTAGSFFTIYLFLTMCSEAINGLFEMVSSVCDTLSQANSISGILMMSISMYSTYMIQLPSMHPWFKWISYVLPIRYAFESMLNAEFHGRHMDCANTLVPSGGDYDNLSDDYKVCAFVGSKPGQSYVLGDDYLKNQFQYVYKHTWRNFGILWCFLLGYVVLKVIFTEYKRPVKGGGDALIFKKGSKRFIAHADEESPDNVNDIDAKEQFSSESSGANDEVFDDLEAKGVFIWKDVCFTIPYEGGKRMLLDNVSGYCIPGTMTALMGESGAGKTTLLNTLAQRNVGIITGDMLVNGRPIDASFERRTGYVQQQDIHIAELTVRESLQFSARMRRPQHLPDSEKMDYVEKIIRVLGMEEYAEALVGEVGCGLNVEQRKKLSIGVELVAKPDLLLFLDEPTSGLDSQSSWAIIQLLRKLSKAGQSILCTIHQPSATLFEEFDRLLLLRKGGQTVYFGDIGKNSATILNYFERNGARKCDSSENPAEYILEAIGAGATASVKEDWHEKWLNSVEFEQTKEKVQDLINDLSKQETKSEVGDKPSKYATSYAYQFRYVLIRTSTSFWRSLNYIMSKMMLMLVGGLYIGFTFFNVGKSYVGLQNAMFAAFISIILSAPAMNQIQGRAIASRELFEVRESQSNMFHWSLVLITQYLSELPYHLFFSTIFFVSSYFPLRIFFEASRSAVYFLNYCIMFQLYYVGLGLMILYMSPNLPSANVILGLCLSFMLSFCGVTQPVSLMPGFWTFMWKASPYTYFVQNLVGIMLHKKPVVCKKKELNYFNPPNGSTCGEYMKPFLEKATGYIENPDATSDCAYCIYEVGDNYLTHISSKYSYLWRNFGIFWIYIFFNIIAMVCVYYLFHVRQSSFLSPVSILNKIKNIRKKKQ
UniProt P20081: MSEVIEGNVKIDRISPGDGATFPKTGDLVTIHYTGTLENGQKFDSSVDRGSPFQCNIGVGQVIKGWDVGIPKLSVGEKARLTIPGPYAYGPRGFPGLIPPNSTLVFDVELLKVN

The target in assay [2] is T2, Tpo1-mDHFR-F[1,2] (bait PCA construct) (S. cerevisiae) (UniProt Q07824).
T2 sequence: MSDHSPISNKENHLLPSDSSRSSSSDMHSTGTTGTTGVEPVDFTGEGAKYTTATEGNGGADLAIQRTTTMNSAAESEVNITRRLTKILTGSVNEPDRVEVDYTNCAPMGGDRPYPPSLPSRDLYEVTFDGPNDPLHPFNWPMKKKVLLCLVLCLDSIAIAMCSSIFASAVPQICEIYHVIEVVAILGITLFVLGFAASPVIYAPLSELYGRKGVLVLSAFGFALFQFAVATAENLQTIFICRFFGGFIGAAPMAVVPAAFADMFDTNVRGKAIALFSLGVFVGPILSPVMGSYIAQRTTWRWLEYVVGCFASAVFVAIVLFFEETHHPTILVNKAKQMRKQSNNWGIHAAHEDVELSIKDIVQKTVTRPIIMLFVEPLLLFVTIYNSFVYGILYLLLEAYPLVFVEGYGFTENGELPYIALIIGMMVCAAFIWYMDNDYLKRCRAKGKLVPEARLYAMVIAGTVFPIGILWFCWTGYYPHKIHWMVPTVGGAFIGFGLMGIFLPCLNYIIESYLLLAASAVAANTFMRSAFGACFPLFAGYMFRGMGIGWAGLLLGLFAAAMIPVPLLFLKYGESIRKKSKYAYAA
The assay can be described thus: split reporter; PPiSeq: split mDHFR PCA in diploid S. cerevisiae, pooled growth with 0.5 ug/ml methotrexate and one of four perturbagens: 0.001% hydrogen peroxide, 175 mM sodium chloride, 200 uM copper sulfate or 50 uM FK506; fitness relative to control strains lacking mDHFR.

In assay [3] the target is T3, Fmp45-mDHFR-F[1,2] (bait PCA construct) (S. cerevisiae) (UniProt Q07651).
T3 sequence: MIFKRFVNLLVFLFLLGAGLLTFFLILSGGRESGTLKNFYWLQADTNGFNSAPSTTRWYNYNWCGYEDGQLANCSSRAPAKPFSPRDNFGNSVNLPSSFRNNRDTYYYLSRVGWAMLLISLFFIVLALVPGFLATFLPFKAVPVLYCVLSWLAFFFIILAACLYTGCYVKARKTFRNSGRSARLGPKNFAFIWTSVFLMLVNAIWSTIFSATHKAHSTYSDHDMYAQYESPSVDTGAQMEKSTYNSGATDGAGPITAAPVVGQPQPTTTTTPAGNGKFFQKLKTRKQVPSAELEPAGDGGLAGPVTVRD
The description is as above.

Assay [4] concerns the target T4, Ftr1-mDHFR-F[1,2] (bait PCA construct) (S. cerevisiae) (UniProt P40088).
T4 sequence: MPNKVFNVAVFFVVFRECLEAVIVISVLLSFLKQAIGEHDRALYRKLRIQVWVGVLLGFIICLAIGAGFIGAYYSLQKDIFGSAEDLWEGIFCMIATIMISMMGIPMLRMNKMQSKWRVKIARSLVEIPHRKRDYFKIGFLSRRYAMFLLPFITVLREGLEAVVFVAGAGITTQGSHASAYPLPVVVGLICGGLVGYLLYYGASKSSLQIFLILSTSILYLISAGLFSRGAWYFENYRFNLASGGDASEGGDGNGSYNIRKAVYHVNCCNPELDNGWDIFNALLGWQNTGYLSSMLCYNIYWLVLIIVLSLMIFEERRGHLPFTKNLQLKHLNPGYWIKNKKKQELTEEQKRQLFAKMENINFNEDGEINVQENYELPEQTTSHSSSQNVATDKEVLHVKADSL
Described as above.

In assay [5] the target is T4, Ftr1-mDHFR-F[1,2] (bait PCA construct) (S. cerevisiae). The assay can be described thus: split reporter; split mDHFR PCA, isolated growth of diploid strains in liquid medium with 0.5 ug/ml methotrexate, optical density (OD600) tracked up to 32 h at 30 C, compared with mDHFR(-) control strains.
The target is the same in assay [6]. Description: split reporter; PPiSeq: split mDHFR PCA in diploid S. cerevisiae, pooled growth of double-barcoded strains with 0.5 ug/ml methotrexate, barcode sequencing every 3 generations over ~12 generations, fitness relative to control strains lacking mDHFR; permissive environment (0.5% DMSO).
The target of assay [7] is T5, aspartate kinase Hom3-mDHFR-F[1,2] (bait PCA construct) (S. cerevisiae) (UniProt P10869).
T5 sequence: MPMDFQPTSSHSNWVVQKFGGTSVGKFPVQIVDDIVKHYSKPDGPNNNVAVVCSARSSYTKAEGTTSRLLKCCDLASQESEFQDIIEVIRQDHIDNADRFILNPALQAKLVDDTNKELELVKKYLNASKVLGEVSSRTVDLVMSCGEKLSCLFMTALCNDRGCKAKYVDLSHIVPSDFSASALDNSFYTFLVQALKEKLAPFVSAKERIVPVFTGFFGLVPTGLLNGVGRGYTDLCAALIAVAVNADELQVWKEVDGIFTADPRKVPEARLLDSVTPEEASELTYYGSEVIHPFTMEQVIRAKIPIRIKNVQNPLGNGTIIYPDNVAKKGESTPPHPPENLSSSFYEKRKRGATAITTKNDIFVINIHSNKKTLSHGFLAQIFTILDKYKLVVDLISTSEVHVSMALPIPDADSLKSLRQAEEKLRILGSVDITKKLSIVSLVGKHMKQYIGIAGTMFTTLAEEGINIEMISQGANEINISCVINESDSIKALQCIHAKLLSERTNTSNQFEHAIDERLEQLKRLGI
Described as above.

Assay [8] deals with T6, Shr3-mDHFR-F[1,2] (bait PCA construct) (S. cerevisiae) (UniProt Q02774).
T6 sequence: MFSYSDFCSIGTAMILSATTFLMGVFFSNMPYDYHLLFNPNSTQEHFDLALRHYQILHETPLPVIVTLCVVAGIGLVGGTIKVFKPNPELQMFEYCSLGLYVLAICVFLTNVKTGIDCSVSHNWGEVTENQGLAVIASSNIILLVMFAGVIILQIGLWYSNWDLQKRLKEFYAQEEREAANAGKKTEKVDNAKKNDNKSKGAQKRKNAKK
The assay can be described thus: split reporter; PPiSeq: split mDHFR PCA in diploid S. cerevisiae, pooled growth with 0.5 ug/ml methotrexate and one of four perturbagens: 0.001% hydrogen peroxide, 175 mM sodium chloride, 200 uM copper sulfate or 50 uM FK506; fitness relative to control strains lacking mDHFR.

Results are given in words; binding and its absence hold for the method and conditions named. Binding seen in cells or lysates may run through a third protein. Some binding calls cover weakened binding; strength is not graded here. For some assays here: Sequences can lack the tags named with a protein.

As for “Pdr5-Rluc PCA fragment fusion (prey of the Renilla luciferase PCA) (from UniProt P33302 1-1511)”, the binding result in assay [1] was “binds”.

In the case of “Pdr5-mDHFR-F[3] (prey PCA construct) (from UniProt P33302 1-1511)”, the binding entry in assay [2], in assay [3], in assay [4], in assay [5] and in assay [6] was “binds” each time.

Turning to “Snq2-mDHFR-F[3] (prey PCA construct) (from UniProt P32568 1-1501)”, in assay [2], the binding result is given as “binds”.

Consider “peptidyl-prolyl cis-trans isomerase Fpr1-mDHFR-F[3] (prey PCA construct) (from UniProt P20081 1-114)”, for which the binding result in assay [7] is recorded as “binds”.

B1: Hxt1-mDHFR-F[3] (prey PCA construct) (protein, UniProt P32465 1-570)
chain: MNSTPDLISPQKSNSSNSYELESGRSKAMNTPEGKNESFHDNLSESQVQPAVAPPNTGKGVYVTVSICCVMVAFGGFIFGWDTGTISGFVAQTDFLRRFGMKHHDGSHYLSKVRTGLIVSIFNIGCAIGGIVLAKLGDMYGRRIGLIVVVVIYTIGIIIQIASINKWYQYFIGRIISGLGVGGITVLSPMLISEVAPSEMRGTLVSCYQVMITLGIFLGYCTNFGTKNYSNSVQWRVPLGLCFAWALFMIGGMMFVPESPRYLVEAGRIDEARASLAKVNKCPPDHPYIQYELETIEASVEEMRAAGTASWGELFTGKPAMFQRTMMGIMIQSLQQLTGDNYFFYYGTIVFQAVGLSDSFETSIVFGVVNFFSTCCSLYTVDRFGRRNCLMWGAVGMVCCYVVYASVGVTRLWPNGQDQPSSKGAGNCMIVFACFYIFCFATTWAPIAYVVISECFPLRVKSKCMSIASAANWIWGFLISFFTPFITGAINFYYGYVFMGCMVFAYFYVFFFVPETKGLSLEEVNDMYAEGVLPWKSASWVPVSKRGADYNADDLMHDDQPFYKSLFSRK
With B1, the binding entry in assay [3], in assay [8] and in assay [4] was “binds” in each case.

Values taken from publication PMC5458509.
